Measurements published in PubChem BioAssay AID206 (DTP/NCI, 2004).
The list shows only some results of the screen, not a fair sample: it is rich in T/C values a quarter to a half above the control, in often repeated tests (any T/C) and in doses without a T/C. Further doses and runs are listed elsewhere. T/C: endpoint of the treated group in % of that of the vehicle group. Schedules are NCI's codes, read here as Q, the interval in days (D) or hours (H), X, the number of doses. Some T/C values are followed by the survivors on the day toxicity was checked, most often the fifth; without a count, all were alive then. Some entries give survivors of the animals treated and no T/C: the source files T/C as zero there, which appears to mark a toxic dose or a test without result, not a measured value. Counts of survivors are from the toxicity check (mostly the fifth day) where no day follows; animals may have died later. Some entries were tested several times; the values are given in rising order.

Test system: nude mice, HT29 intrarenal xenograft, tumor weight T/C
Experiment: NCI In Vivo Anticancer Drug Screen. Data for tumor model HT29;CX-1 Human Adenocarcinoma (MER+) (intrarenal inoculation) in NU/NU Swiss (nude) mice
Details: T/C endpoint: mean tumor weight change, higher T/C = larger tumour
Protocol: The antitumor activity of compounds was measured in mice bearing transplantable tumors. Survival or tumor size were measured and the results are expressed as the measurement made in the treated group (T) divided by the measurement made in the vehicle treated control group (C). The tumor model used in this assay is HT29;CX-1 Human Adenocarcinoma (MER+) (intrarenal inoculation) in NU/NU Swiss (nude) mice

[1] = dose: 2400.0 mg/kg/injection, schedule: Q04DX004 (sc), vehicle: suspension in saline
[2] = dose: 1200.0 mg/kg/injection, schedule: Q04DX004 (sc), vehicle: Klucel (hydroxypropylcellulose) (HPC)

CO[C@@]12[C@H](COC(N)=O)C3=C(C(=O)C(C)=C(N)C3=O)N1C[C@@H]1N[C@@H]12
survivor count (dose: 5.0 mg/kg/injection, schedule: Q04DX004 (sc), vehicle: saline): 1 of 3 on day 15 | survivor count (dose: 6.0 mg/kg/injection, schedule: Q04DX004 (sc), vehicle: saline): 0 of 6 on day 15 | survivor count (dose: 10.0 mg/kg/injection, schedule: Q04DX004 (sc), vehicle: saline): 0 of 3 on day 15 | survivor count (dose: 12.0 mg/kg/injection, schedule: Q04DX003 (sc), vehicle: saline): 0 of 6 on day 15 | survivor count (dose: 12.0 mg/kg/injection, schedule: Q04DX004 (sc), vehicle: saline): 0 of 6 on day 15 | survivor count (dose: 24.0 mg/kg/injection, schedule: Q04DX003 (sc), vehicle: saline): 0 of 6 on day 15

N#CN=[N+]([O-])c1ccc(C(=O)O)cc1
survivor count (dose: 90.0 mg/kg/injection, schedule: Q04DX004 (sc), vehicle: Klucel (hydroxypropylcellulose) (HPC)): 0 of 6 on day 15 | survivor count (dose: 180.0 mg/kg/injection, schedule: Q04DX004 (sc), vehicle: Klucel (hydroxypropylcellulose) (HPC)): 0 of 6 on day 15 | survivor count (dose: 360.0 mg/kg/injection, schedule: Q04DX004 (sc), vehicle: Klucel (hydroxypropylcellulose) (HPC)): 0 of 6 on day 15

O=C1C(NCC(O)CO)=C(N2CC2)C(=O)C(NCC(O)CO)=C1N1CC1 (configuration not stated)
survivor count (dose: 32.0 mg/kg/injection, schedule: Q04DX004 (sc), vehicle: saline): 0 of 6 on day 15

CN(C)N=Nc1ccccc1
survivor count (dose: 200.0 mg/kg/injection, schedule: Q04DX004 (sc), vehicle: Klucel (hydroxypropylcellulose) (HPC)): 2 of 6 on day 15

CC(C)[C@]12O[C@H]1[C@@H]1O[C@]13[C@]1(O[C@H]1C[C@H]1C4=C(C(=O)OC4)[C@@H](O)C[C@@]13C)[C@@H]2O
survivor count (dose: 0.4 mg/kg/injection, schedule: Q01DX010 (sc), vehicle: saline + alcohol): 1 of 3 on day 11 | survivor count (dose: 0.8 mg/kg/injection, schedule: Q01DX010 (sc), vehicle: saline + alcohol): 0 of 3 on day 11

COc1cccc2c1C(=O)c1c(O)c3c(c(O)c1C2=O)C[C@@](O)(C(C)=O)C[C@@H]3OC1CC(N)C(O)C(C)O1 (some centres not stated)
T/C (dose: 0.5 mg/kg/injection, schedule: Q01DX010 (sc), vehicle: saline, evaluated on day 11): 134 % of control | T/C (dose: 1.0 mg/kg/injection, schedule: Q01DX010 (sc), vehicle: saline, evaluated on day 11): 137 % of control | T/C (dose: 2.0 mg/kg/injection, schedule: Q01DX010 (sc), vehicle: saline, evaluated on day 11): 131 % of control | survivor count (dose: 8.0 mg/kg/injection, schedule: Q01DX010 (sc), vehicle: saline): 0 of 3 on day 11 and 0 of 6 on day 11 | survivor count (dose: 16.0 mg/kg/injection, schedule: Q01DX010 (sc), vehicle: saline): 0 of 3 on day 11

CN(C)N=Nc1cn[nH]c1C(N)=O
survivor count [1]: 0 of 6 on day 15

NC(=S)c1cn(C2OC(CO)C(O)C2O)c2ncnc(N)c12 (configuration not stated)
survivor count (dose: 25.0 mg/kg/injection, schedule: Q04DX004 (sc), vehicle: suspension in saline): 1 of 6 on day 15 | survivor count (dose: 50.0 mg/kg/injection, schedule: Q04DX004 (sc), vehicle: suspension in saline): 0 of 6 on day 15

CCS/C(SC)=C(/c1ccccc1)[P+](c1ccccc1)(c1ccccc1)c1ccccc1
T/C (dose: 37.5 mg/kg/injection, schedule: Q04DX004 (sc), vehicle: Klucel (hydroxypropylcellulose) (HPC), evaluated on day 15): 125 % of control [3 of 4 alive on day 15] | survivor count (dose: 75.0 mg/kg/injection, schedule: Q04DX004 (sc), vehicle: Klucel (hydroxypropylcellulose) (HPC)): 3 of 6 on day 15 | survivor count (dose: 150.0 mg/kg/injection, schedule: Q04DX004 (sc), vehicle: Klucel (hydroxypropylcellulose) (HPC)): 0 of 6 on day 15

COc1cc([C@@H]2c3cc4c(cc3[C@@H](OC3OC5COC(C)OC5C(O)C3O)[C@H]3COC(=O)[C@H]23)OCO4)cc(OC)c1O (some centres not stated)
T/C (dose: 8.0 mg/kg/injection, schedule: Q01DX010 (sc), vehicle: saline, evaluated on day 11): 144 % of control | T/C (dose: 16.0 mg/kg/injection, schedule: Q01DX010 (sc), vehicle: saline, evaluated on day 11): 143 % of control

O=CC(O)C(O)C(O)C(O)C(=O)O.[NH-]C1CCCCC1[NH-].[Pt+2] (configuration not stated)
survivor count (dose: 37.5 mg/kg/injection, schedule: Q04DX004 (sc), vehicle: suspension in saline): 1 of 6 on day 15 | survivor count (dose: 75.0 mg/kg/injection, schedule: Q04DX004 (sc), vehicle: suspension in saline): 0 of 6 on day 15

NC(CCC(=O)NC(CS)C(=O)NCC(=O)O)C(=O)O (configuration not stated)
T/C (dose: 1200.0 mg/kg/injection, schedule: Q04DX004 (sc), vehicle: saline, evaluated on day 15): 127 % of control

COC(=O)C12OCC34C(CC5C(C)=CC(=O)C(O)C5(C)C3C(O)C1O)OC(=O)C(OC(=O)CC(C)C)C24 (configuration not stated)
survivor count (dose: 6.0 mg/kg/injection, schedule: Q04DX004 (sc), vehicle: saline + alcohol): 1 of 6 on day 15 | survivor count (dose: 12.0 mg/kg/injection, schedule: Q04DX004 (sc), vehicle: saline + alcohol): 0 of 6 on day 15

BrCC[Se]c1ccccc1
T/C (dose: 200.0 mg/kg/injection, schedule: Q04DX004 (sc), vehicle: saline with Tween-80, evaluated on day 15): 129 % of control [5 of 6 alive on day 15] | survivor count (dose: 200.0 mg/kg/injection, schedule: Q04DX004 (sc), vehicle: saline with Tween-80): 0 of 6 on day 15 | survivor count (dose: 800.0 mg/kg/injection, schedule: Q04DX004 (sc), vehicle: saline with Tween-80): 0 of 6 on day 15 | survivor count (dose: 1600.0 mg/kg/injection, schedule: Q04DX004 (sc), vehicle: saline with Tween-80): 0 of 6 on day 15

CN1CCc2c(c3ccccc3c3ccccc23)C1
survivor count [2]: 3 of 5 on day 15

COC1C(O)C(C)OC(OC2C(Oc3cccc4c(O)c5c(=O)oc6ccc(C)c7c(=O)oc(c34)c5c67)OC(C)C(O)C2O)C1O (configuration not stated)
survivor count (dose: 800.0 mg/kg/injection, schedule: Q01DX010 (sc), vehicle: Klucel (hydroxypropylcellulose) (HPC)): 0 of 3 on day 20

O=C1C=CC(=O)N1c1ccc(Cl)cc1
survivor count (dose: 300.0 mg/kg/injection, schedule: Q04DX004 (sc), vehicle: Klucel (hydroxypropylcellulose) (HPC)): 2 of 5 on day 15

C=C1CC2(OC1=O)C(=O)N(C)c1ccc(I)cc12 (configuration not stated)
survivor count (dose: 600.0 mg/kg/injection, schedule: Q04DX004 (sc), vehicle: suspension in saline): 3 of 6 on day 15 | survivor count (dose: 1200.0 mg/kg/injection, schedule: Q04DX004 (sc), vehicle: suspension in saline): 2 of 6 on day 15 | survivor count [1]: 1 of 6 on day 15

CSc1nc(=O)[nH]nc1SCc1ccccc1
survivor count (dose: 1600.0 mg/kg/injection, schedule: Q04DX004 (sc), vehicle: Klucel (hydroxypropylcellulose) (HPC)): 3 of 5 on day 15

O=[n+]1c2ccccc2n([O-])c2ccccc21.[Cl][Ni][Cl]
T/C (dose: 37.5 mg/kg/injection, schedule: Q04DX004 (sc), vehicle: saline with Tween-80, evaluated on day 15): 133 % of control | survivor count (dose: 300.0 mg/kg/injection, schedule: Q04DX004 (sc), vehicle: saline with Tween-80): 0 of 6 on day 15

OCC1OC(n2cnc3c(Cl)ncnc32)C(O)C1O (configuration not stated)
survivor count (dose: 2400.0 mg/kg/injection, schedule: Q04DX004 (sc), vehicle: saline): 2 of 5 on day 15

COc1cc2c(c(OC)c1OC)-c1ccc(OC)c(=O)cc1[C@@H](NC(C)=O)CC2
T/C (dose: 0.25 mg/kg/injection, schedule: Q01DX010 (sc), vehicle: saline, evaluated on day 20): 133 % of control | survivor count (dose: 1.0 mg/kg/injection, schedule: Q01DX010 (sc), vehicle: saline): 1 of 3 on day 20 | survivor count (dose: 2.0 mg/kg/injection, schedule: Q01DX010 (sc), vehicle: saline): 0 of 3 on day 20

OCC1OC(n2cnc3cncnc32)C(O)C1O (configuration not stated)
survivor count (dose: 100.0 mg/kg/injection, schedule: Q04DX004 (sc), vehicle: saline): 0 of 6 on day 15

C[C@]12CC[C@@H]3c4ccc(O)cc4CC[C@H]3[C@@H]1CC[C@@H]2O
survivor count [2]: 3 of 6 on day 15 | survivor count (dose: 2400.0 mg/kg/injection, schedule: Q04DX004 (sc), vehicle: Klucel (hydroxypropylcellulose) (HPC)): 1 of 6 on day 15

O=C(O)C(O)C(O)C1[O][Sb][O]C1C(=O)O (configuration not stated)
survivor count (dose: 300.0 mg/kg/injection, schedule: Q04DX004 (sc), vehicle: saline): 0 of 6 on day 15
